Measured data: PubChem BioAssay AID1224828 (NIAID, 2016)
Shown is one part, drawn at random, of about 17,000 deposited reagents. In the full data, 762 (4.5%) were called active. 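Active calls include both raised and lowered p65 entry, mostly lowered; wells with fewer than 50 cells lack a z-score.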 Raw values are not corrected between plates. Entries without a mark were called inactive. No sequences are given here.

- Aim: 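Knock-downs that increase or decrease LPS-induced p65 nuclear translocation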 (primary screen)
- Cells: mouse RAW264.7 G9 macrophage reporter cells (GFP-p65, Tnf promoter-mCherry)
- Reagents: siRNA pool against mouse genes, 100 nM
- Time to read-out: 2 days siRNA transfection, then 40 min LPS before fixation
- Treatment: LPS (Salmonella minnesota R595) at 10 ng/ml
- Measurement: 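Imaged p65 nuclear translocation ratio, normalised to the plate median, converted to robust z-scores and averaged across two replicates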
- Reading the numbers: p65 translocation robust z-score: higher = more nuclear NF-kappaB p65 after LPS than the plate median; nuclear/cytoplasmic p65 ratio: higher = more nuclear NF-kappaB p65
- Hit rule: 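Active if robust z is above 3.3 (negative regulators) or below -1.56, the Tlr4 control median (positive regulators); activity score 50 or more; control wells not called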
- Meaning of the calls: active = hit (p65 shift raised or lowered); inactive = no clear change

| gene symbol | p65 translocation robust z-score | nuclear/cytoplasmic p65 ratio, rep 1 | nuclear/cytoplasmic p65 ratio, rep 2 | low cell count flag |
| --- | --- | --- | --- | --- |
| Tmem161b (transmembrane protein 161B) | – | 1.12 | 1.1 | fewer than 50 cells per well; well left out of scoring |
| Apip (APAF1 interacting protein) | 1.61 | 1.96 | 1.91 | enough cells to score |
| Or5p56 (olfactory receptor family 5 subfamily P member 56) | 0.17 | 1.47 | 1.26 | enough cells to score |
| Rtl8a (retrotransposon Gag like 8A) | -1 | 1.39 | 1.32 | enough cells to score |
| Rlig1 (RNA 5'-phosphate and 3'-OH ligase 1) | -0.79 | 1.17 | 1.13 | enough cells to score |
| Ifna4 (interferon alpha 4) | -2.12 (active) | 1.16 | 1.1 | enough cells to score |
| 4930515G01Rik (RIKEN cDNA 4930515G01 gene) | -1.03 | 1.14 | 1.18 | enough cells to score |
| Tmem229b (transmembrane protein 229B) | 1.84 | 1.48 | 1.83 | enough cells to score |
| Adnp (activity-dependent neuroprotective protein) | – | 1.32 | 1.51 | fewer than 50 cells per well; well left out of scoring |
| Or4k2 (olfactory receptor family 4 subfamily K member 2) | -0.85 | 1.33 | 1.17 | enough cells to score |
| Aurkc (aurora kinase C) | -1.95 (active) | 1.54 | 1.14 | enough cells to score |
| Cd68 (CD68 antigen) | -0.4 | 1.39 | 1.34 | enough cells to score |
| Mindy2 (MINDY lysine 48 deubiquitinase 2) | -0.62 | 1.5 | 1.43 | enough cells to score |
| Vmn1r81 (vomeronasal 1 receptor 81) | – | 1.22 | 0.908 | fewer than 50 cells per well; well left out of scoring |
| Bet1 (Bet1 golgi vesicular membrane trafficking protein) | 0.74 | 1.64 | 1.51 | enough cells to score |
| Apba1 (amyloid beta precursor protein binding family A member 1) | 0.58 | 1.7 | 1.58 | enough cells to score |
| Asic3 (acid-sensing ion channel 3) | 0.33 | 1.69 | 1.69 | enough cells to score |
| Hmgcll1 (3-hydroxymethyl-3-methylglutaryl-Coenzyme A lyase-like 1) | – | 1.36 | 1.19 | fewer than 50 cells per well; well left out of scoring |
| Cct3 (chaperonin containing TCP1 subunit 3) | 1.57 | 1.44 | 1.58 | enough cells to score |
| Snrpn (small nuclear ribonucleoprotein N) | 0.24 | 1.53 | 1.64 | enough cells to score |
| Gprin3 (GPRIN family member 3) | 1.95 | 1.83 | 2.16 | enough cells to score |
| Chchd4 (coiled-coil-helix-coiled-coil-helix domain containing 4) | -0.72 | 1.46 | 1.7 | enough cells to score |
| Or4k47 (olfactory receptor family 4 subfamily K member 47) | -0.77 | 1.5 | 1.32 | enough cells to score |
| Dmtf1 (cyclin D binding myb like transcription factor 1) | – | 1.53 | 1.21 | fewer than 50 cells per well; well left out of scoring |
| Cyp4a10 (cytochrome P450, family 4, subfamily a, polypeptide 10) | -2.25 (active) | 1.25 | 1.41 | enough cells to score |
| Stap1 (signal transducing adaptor family member 1) | 0.15 | 1.69 | 1.6 | enough cells to score |
| A630001G21Rik (RIKEN cDNA A630001G21 gene) | – | 1.14 | 1.48 | fewer than 50 cells per well; well left out of scoring |
| Gnptg (N-acetylglucosamine-1-phosphotransferase, gamma subunit) | 1.46 | 1.31 | 1.79 | enough cells to score |
| Chia1 (chitinase, acidic 1) | -0.19 | 1.58 | 1.58 | enough cells to score |
| Sltm (SAFB-like, transcription modulator) | 0.88 | 1.48 | 1.63 | enough cells to score |
| Cldn10 (claudin 10) | 1.53 | 1.7 | 1.55 | enough cells to score |
| Abca8b (ATP-binding cassette, sub-family A member 8b) | -0.41 | 1.55 | 1.62 | enough cells to score |
| Eif5 (eukaryotic translation initiation factor 5) | 0.16 | 1.53 | 1.35 | enough cells to score |
| Aldh8a1 (aldehyde dehydrogenase 8 family, member A1) | -0.33 | 1.5 | 1.69 | enough cells to score |
| Dbi (diazepam binding inhibitor) | -0.06 | 1.45 | 1.37 | enough cells to score |
| Rab9 (RAB9, member RAS oncogene family) | -0.29 | 1.5 | 1.45 | enough cells to score |
| Or12e10 (olfactory receptor family 12 subfamily E member 10) | 0.43 | 1.83 | 1.55 | enough cells to score |
| Pdlim1 (PDZ and LIM domain 1 (elfin)) | 0.24 | 1.5 | 1.42 | enough cells to score |
| 4930486L24Rik (RIKEN cDNA 4930486L24 gene) | -0.25 | 1.34 | 1.28 | enough cells to score |
| Chpt1 (choline phosphotransferase 1) | 0.84 | 1.58 | 1.49 | enough cells to score |

An excerpt from above, showing only “low cell count flag”:
Adnp (activity-dependent neuroprotective protein) = fewer than 50 cells per well; well left out of scoring
Or4k2 (olfactory receptor family 4 subfamily K member 2) = enough cells to score
Aurkc (aurora kinase C) = enough cells to score (active)
